In US20220162338A1 (SICHUAN KELUN BIOTECH BIOPHARMACEUTICAL, published 2022):
These are yes or no findings as the source states them, for the method shown. Some entries that bind do so weakly or less than the wild type.

The chains behind the UniProt entries cited, without tags or fusion partners. Residues count along the entry.
UniProt P03951, residues 19-625: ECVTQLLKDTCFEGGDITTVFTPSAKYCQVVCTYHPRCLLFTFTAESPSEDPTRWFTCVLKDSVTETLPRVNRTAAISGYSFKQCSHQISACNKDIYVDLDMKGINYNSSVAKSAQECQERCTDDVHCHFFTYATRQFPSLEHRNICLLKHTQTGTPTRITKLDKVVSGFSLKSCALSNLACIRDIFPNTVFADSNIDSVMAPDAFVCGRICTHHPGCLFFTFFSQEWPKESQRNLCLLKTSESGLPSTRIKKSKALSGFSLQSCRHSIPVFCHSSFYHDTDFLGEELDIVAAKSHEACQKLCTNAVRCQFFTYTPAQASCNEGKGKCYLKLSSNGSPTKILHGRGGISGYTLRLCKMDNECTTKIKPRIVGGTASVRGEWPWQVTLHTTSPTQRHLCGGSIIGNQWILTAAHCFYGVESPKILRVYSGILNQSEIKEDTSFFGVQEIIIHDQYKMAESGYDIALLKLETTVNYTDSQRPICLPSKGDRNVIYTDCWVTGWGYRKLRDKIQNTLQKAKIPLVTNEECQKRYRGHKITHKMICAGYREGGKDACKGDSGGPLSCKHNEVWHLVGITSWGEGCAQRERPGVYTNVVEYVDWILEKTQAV

Target: human FXI antigen expressed in 293F cells (human) (UniProt P03951)
Assay: ELISA on coated human FXI (293F-expressed, 1 µg/mL), HRP goat anti-human secondary antibody, OD450

B1: humanized antibody 36G9.10-hz73 (antibody, human IgG1, kappa, N297A, V domains shown)
VH: EVQLVQSGAEVKKPGATVKISCKASGFNIKDTYIHWVQQAPGKGLEWMGRIDPANDNTIYAEKFQGRVTITADTSTNTAYMELSSLRSEDTAVYYCAQDYDGFAMDYWGQGTLVTVSS
VL: DIQMTQSPSSLSASVGDRVTITCKASQDINKYITWFQQKPGKAPKLLIHYTSTLQPGVPSRFSGSGSGRDYTLTISSLQPEDFATYYCLQYDYLLTFGGGTKVEIKR
binding: binds
